# Results are given in words; binding and its absence hold for the method and conditions named. Binding can be weak; no strength is given.
# Columns and labels:
# TGF-β2 K25R I92V K94R [1] = target: T1, TGF-β2 K25R I92V K94R (UniProt P61812); assay: SPR, receptor injected over immobilised TGF-β2 K25R I92V K94R
# T1 sequence (looked up): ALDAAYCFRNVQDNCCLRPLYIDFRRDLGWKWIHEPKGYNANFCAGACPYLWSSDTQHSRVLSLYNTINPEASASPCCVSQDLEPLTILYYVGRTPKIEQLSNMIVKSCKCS
# TGF-β2 K25R I92V K94R [2] = target: T1, TGF-β2 K25R I92V K94R; assay: SPR, TβRII injected over immobilised TGF-β2 K25R I92V K94R with or without 800 nM TβRIIIE
substance,measurement,setting,value
TGF-β type III receptor endoglin-like domain,binding,TGF-β2 K25R I92V K94R [1],binds
same,binding,TGF-β2 K25R I92V K94R [2],binds

# — patent USRE49280
